# The full ranking holds about 33,000 sequences; the median of “E-score (-0.5 to 0.5)” is about -0.015, and the highest 2% start at about 0.3. Some of the results follow.
# Molecular target: T1, Abf1 (UniProt P14164)
# T1 sequence: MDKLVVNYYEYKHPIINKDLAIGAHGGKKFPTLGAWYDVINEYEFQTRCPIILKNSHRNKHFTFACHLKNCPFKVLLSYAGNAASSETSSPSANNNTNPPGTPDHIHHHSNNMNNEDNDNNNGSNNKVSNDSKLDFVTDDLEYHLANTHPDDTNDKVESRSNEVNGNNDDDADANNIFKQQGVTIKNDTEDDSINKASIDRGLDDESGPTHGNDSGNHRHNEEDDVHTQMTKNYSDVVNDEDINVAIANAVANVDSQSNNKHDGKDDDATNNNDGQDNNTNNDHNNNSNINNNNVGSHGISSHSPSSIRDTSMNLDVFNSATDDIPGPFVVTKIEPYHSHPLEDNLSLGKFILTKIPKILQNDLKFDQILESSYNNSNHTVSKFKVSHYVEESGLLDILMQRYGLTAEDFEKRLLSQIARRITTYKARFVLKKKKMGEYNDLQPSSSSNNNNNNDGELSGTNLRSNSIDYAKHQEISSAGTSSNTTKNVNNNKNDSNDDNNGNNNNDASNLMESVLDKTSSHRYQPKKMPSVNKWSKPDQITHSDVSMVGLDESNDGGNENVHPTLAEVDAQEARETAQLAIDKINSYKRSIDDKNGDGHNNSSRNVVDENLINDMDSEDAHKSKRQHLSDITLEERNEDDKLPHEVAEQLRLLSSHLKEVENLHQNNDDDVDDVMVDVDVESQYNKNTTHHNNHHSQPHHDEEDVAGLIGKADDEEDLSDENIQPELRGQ
# Test: PBM E-score (8-mer binding enrichment) (E-score (-0.5 to 0.5)); higher = stronger / more preferred TF binding
# Conditions: protein concentration: 200 nM; construct: GST-full length
# Method in brief: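 GST-tagged yeast TFs (full-length or DNA-binding domain) were made by PURExpress in vitro transcription/translation and applied at about 100-200 nM to universal all-10-mer Agilent arrays. The arrays were made double-stranded by primer extension, on fresh or once-stripped slides. Bound protein was detected with fluorescent anti-GST, and scans were normalised with masliner. Each ungapped eight-base word, pooled with its reverse complement, received an E-score (modified Wilcoxon-Mann-Whitney statistic) from the Universal PBM Analysis Suite.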
row,Sequence,PBM E-score
1,GTCAGCAA,0.0498
2,AGCCATTA,0.0369
3,TGACATCA,0.274
4,ACACGTTC,-0.0194
5,AATGCCGG,-0.0682
6,TAATTAGA,0.018
7,GGCACTCA,-0.142
8,ATAGGGAA,-0.124
9,CTCACTCA,0.0709
10,TGCGCGCA,-0.139
11,ATCCTTCC,-0.16
12,CGACAAGA,0.146
13,ATGGCTCG,-0.0108
14,CAGCATGC,-0.092
15,GAAGCCAA,-0.209
16,CACCGCTG,-0.0261
17,AGAACTAC,-0.0734
18,ATGGATCG,0.105
19,GCTGCTCA,0.118
20,CACAAGAG,-0.0119
21,GAATGCAC,0.165
22,ACCCGCTC,-0.183

row,Sequence,PBM E-score
1,ATTAATGC,0.0309
2,CGCAAAGA,-0.0219
3,CCATCTAC,-0.0821
4,CCAGATGG,0.0293
5,TAAGATTA,0.0635
6,CTCGACGC,0.0733
7,CGGAAATC,0.0655
8,CTGTACAC,-0.0437
9,ACGTTCAC,-0.00741
10,ACTATAGC,-0.108
11,CCCGCCTC,-0.113
12,CCCGGAAG,-0.186
13,AATGGCAA,0.0512
14,AGACGCTA,-0.059
15,ACCACCGC,-0.131
16,CAATTACA,0.0343
17,CATAGAGA,-0.0563
18,CCGGACAG,0.0206
19,CCTAGCAC,-0.181
20,AATGACAC,0.227
21,ATATTAGC,0.017
22,ATAGCGGC,-0.122

# A second format for some results above.
row	Sequence	PBM E-score
5	AATGCCGG	-0.0682
1	ATTAATGC	0.0309
20	AATGACAC	0.227

# The list continues.

row,Sequence,PBM E-score
1,AGGTCACG,0.235
2,GGTAGGAC,-0.188
3,AAGCACGT,0.217
4,CGGTCATA,0.0316
5,ATTTGGAC,0.0475
6,GCTACTAC,0.0235
7,TAGCAAGA,-0.0485
8,ATTACCCC,0.0345
9,CCGCGACA,0.154
10,GCAATCAA,0.0156
11,CTAAATAA,0.0918
12,GGTGAGGA,0.03
13,TACAATGA,0.104
14,GCGGGGTA,-0.164
15,AGGATCAT,0.0179
16,AATCGCCC,-0.16
17,AGCCCGGG,-0.222
18,CAGAAGAA,-0.0698
19,AACTCGTG,0.12
20,AAACTGTT,-0.0371
21,CTGGACAC,-0.164
22,AACATTCT,-0.00019

row,Sequence,PBM E-score
1,GTCCTGAA,0.111
2,AATCCAGA,-0.0795
3,ATGCGGCG,0.0048
4,CTATTCCA,-0.0222
5,AGCAACTG,-0.123
6,TCGGACGA,0.325
7,ACTAAAAT,0.0237
8,AGCCTAAA,-0.0339
9,ATCAGGTA,-0.113
10,CCCTGTCG,-0.112
11,CACATGCA,-0.0413
12,ATAGTGAG,0.069
13,AAGTGGAC,0.0527
14,AATAAATT,0.313
15,TGCTATAA,-0.00372
16,AAGGGGAC,0.0257
17,ACATGCGC,0.193
18,ATCTACAA,0.0726
19,CACCATGG,-0.132
20,GTAATCTA,0.119

# — the supplement of paper PMC3334620
